# From the supplement of paper PMC12067093, “Discovery and optimisation of a covalent ligand for TRIM25 and its application to targeted protein ubiquitination” (Chemical Science, 2025)
# Chains of the proteins cited; added tags and fusions are not shown. Lines headed by an entry give the natural chain unless they say otherwise; changes in a name come on top.
# UniProt Q9H8W4: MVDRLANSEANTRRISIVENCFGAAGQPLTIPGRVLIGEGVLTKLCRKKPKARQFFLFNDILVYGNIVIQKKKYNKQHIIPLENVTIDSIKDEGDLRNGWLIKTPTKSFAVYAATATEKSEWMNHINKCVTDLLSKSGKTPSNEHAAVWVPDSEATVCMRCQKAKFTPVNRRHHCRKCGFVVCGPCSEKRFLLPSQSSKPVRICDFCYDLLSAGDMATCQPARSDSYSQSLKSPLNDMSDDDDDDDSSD
# UniProt Q9Y263: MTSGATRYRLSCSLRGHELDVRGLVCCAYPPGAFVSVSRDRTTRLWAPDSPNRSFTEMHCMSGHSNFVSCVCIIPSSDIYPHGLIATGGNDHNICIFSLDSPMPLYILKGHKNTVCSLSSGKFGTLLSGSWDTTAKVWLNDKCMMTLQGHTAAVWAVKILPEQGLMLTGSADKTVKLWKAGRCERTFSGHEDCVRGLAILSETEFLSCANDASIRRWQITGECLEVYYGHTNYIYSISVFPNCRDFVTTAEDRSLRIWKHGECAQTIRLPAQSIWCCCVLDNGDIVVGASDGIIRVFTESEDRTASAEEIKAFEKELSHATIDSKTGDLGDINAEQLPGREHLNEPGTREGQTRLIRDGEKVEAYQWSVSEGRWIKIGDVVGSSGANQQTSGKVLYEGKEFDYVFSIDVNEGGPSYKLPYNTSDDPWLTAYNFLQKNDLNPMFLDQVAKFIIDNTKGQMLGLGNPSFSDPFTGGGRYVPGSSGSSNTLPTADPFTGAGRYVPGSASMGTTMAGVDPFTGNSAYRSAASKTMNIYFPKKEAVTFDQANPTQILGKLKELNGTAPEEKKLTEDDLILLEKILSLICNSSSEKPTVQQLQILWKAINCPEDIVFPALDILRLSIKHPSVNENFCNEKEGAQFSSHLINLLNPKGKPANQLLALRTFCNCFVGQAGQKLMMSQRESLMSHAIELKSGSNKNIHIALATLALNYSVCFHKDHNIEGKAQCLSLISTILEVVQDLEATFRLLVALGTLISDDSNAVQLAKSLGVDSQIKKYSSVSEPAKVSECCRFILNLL
# UniProt P29590: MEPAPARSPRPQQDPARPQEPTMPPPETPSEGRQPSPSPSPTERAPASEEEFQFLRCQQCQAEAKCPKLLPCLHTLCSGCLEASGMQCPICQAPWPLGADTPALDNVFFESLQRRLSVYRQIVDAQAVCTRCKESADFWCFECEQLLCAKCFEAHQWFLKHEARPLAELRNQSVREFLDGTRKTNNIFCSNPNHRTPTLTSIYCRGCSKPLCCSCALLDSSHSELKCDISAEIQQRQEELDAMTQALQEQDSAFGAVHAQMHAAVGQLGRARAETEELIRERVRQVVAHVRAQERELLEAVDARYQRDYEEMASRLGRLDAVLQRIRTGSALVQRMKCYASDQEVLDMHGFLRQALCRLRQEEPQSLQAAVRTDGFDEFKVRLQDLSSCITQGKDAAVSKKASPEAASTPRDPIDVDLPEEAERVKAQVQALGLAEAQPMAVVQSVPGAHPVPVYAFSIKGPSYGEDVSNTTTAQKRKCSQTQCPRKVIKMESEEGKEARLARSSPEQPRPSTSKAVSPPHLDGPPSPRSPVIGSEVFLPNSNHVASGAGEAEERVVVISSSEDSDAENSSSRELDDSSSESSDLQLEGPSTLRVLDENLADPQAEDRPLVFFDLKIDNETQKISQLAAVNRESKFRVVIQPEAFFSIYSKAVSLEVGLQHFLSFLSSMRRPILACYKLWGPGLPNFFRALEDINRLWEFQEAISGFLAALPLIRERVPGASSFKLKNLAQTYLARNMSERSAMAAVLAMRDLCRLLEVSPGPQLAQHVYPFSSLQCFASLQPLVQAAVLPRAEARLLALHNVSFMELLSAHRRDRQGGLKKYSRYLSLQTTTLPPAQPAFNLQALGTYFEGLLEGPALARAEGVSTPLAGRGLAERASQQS
# UniProt Q16512: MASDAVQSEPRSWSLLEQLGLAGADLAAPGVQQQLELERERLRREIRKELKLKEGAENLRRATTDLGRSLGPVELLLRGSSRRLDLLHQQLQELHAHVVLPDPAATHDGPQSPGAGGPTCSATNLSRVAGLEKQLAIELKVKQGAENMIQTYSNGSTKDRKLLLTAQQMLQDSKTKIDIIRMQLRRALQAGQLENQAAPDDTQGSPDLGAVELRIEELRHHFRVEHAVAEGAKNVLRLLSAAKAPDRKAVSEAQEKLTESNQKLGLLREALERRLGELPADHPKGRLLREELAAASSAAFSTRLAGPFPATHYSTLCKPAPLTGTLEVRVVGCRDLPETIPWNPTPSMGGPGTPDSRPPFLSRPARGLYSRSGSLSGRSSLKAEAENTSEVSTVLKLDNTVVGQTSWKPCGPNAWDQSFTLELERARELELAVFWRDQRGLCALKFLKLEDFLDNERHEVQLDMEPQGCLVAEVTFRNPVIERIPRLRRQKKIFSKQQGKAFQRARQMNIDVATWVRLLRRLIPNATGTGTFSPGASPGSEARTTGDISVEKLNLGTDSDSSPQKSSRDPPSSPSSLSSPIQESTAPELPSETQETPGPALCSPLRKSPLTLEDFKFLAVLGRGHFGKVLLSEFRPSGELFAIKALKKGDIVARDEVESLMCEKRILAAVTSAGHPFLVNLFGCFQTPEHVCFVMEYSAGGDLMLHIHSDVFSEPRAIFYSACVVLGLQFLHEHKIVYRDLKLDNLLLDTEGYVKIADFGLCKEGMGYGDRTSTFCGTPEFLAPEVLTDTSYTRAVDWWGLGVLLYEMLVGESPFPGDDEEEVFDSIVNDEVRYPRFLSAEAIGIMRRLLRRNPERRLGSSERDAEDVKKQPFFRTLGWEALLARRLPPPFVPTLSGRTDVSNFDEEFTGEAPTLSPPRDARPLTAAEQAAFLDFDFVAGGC
# UniProt Q00722, whole entry, looked up: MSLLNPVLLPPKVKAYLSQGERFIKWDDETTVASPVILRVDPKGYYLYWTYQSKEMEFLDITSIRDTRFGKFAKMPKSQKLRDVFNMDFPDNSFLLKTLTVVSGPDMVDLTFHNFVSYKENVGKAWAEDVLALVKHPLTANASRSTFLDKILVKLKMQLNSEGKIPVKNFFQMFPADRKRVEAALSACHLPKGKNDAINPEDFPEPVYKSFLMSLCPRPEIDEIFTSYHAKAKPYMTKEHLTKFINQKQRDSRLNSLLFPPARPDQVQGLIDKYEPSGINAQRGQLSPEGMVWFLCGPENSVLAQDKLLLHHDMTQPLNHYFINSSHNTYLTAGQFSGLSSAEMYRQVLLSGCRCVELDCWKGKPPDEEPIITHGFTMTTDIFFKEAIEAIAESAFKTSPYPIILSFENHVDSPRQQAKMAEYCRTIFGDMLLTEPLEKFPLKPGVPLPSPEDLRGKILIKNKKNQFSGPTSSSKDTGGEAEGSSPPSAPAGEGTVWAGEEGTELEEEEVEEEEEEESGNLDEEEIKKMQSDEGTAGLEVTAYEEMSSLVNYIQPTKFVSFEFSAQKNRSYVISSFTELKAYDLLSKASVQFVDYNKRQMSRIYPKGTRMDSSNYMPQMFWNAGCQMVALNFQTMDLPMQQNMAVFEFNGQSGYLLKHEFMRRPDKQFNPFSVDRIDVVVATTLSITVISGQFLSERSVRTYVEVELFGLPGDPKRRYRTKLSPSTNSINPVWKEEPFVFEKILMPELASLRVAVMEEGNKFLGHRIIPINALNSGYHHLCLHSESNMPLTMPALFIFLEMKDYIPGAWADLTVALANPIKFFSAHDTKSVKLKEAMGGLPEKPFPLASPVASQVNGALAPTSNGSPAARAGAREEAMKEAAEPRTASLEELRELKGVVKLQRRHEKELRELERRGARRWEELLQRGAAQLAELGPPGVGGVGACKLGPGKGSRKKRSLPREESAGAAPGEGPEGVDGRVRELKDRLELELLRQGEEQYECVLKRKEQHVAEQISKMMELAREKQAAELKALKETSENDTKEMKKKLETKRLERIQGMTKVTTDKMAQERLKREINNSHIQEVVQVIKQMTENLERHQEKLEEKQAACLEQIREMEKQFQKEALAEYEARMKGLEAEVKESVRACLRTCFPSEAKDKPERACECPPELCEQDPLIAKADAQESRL
# UniProt Q99570, whole entry, looked up: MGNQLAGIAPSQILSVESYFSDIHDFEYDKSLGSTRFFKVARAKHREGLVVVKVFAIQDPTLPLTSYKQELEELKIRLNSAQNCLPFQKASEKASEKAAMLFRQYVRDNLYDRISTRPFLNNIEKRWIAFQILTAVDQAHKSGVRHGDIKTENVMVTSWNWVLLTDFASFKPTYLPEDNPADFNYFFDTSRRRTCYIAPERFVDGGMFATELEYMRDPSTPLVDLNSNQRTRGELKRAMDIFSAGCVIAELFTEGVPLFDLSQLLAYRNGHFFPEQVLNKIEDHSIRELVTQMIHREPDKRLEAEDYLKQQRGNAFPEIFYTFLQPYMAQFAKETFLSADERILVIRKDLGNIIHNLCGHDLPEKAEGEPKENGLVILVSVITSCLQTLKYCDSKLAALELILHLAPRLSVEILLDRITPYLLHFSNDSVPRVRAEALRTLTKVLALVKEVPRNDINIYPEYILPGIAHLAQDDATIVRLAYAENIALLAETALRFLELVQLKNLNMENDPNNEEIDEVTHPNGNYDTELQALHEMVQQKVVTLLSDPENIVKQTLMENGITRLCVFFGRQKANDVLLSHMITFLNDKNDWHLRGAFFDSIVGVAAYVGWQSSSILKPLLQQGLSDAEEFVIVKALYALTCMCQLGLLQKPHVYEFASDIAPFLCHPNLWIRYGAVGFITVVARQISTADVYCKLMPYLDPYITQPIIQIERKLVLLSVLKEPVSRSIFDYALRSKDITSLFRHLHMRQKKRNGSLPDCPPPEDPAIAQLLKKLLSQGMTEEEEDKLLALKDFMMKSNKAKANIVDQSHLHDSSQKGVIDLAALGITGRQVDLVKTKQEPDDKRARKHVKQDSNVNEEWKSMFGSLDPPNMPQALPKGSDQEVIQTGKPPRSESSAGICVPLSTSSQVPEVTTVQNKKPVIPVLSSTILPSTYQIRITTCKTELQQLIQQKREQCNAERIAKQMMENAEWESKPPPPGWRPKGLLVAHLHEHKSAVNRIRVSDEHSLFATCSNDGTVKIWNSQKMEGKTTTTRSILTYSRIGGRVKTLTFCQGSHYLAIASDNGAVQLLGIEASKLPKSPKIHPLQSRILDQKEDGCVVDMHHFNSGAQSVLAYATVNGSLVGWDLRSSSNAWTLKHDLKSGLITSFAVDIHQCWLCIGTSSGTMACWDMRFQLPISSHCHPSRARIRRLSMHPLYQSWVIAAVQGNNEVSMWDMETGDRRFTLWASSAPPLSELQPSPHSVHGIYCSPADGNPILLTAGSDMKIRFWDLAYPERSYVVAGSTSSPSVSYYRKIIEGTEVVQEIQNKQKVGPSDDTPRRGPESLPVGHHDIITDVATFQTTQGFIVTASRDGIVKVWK
# UniProt Q02809: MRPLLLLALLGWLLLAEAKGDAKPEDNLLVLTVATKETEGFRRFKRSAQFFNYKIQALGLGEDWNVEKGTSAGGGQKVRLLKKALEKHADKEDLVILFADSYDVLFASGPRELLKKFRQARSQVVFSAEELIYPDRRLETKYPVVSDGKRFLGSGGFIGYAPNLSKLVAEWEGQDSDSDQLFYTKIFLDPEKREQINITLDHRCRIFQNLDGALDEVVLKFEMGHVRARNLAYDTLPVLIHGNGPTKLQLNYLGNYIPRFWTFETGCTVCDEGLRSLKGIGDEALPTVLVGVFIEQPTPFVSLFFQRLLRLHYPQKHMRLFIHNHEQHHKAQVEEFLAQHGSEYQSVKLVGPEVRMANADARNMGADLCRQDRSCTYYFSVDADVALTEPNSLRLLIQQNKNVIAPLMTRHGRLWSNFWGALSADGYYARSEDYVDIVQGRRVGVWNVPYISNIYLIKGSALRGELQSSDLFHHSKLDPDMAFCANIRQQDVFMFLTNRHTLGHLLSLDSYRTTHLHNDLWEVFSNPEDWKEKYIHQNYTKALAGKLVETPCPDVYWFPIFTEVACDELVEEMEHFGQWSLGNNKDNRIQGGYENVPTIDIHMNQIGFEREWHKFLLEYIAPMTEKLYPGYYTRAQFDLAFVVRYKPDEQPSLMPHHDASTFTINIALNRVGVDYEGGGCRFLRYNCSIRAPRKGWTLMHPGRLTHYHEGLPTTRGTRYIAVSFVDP
# This is one part of the list.
# Compound: Cc1cc(ccc1-c1ccccc1)C(=O)N1CCCN(CC1)C(=O)CCl [compound 10]
# Experiment: probe-labelled cysteine peptide fold change vs DMSO (competition) (log2 fold change); higher = less target engagement (more negative = stronger competition)
# Conditions: THP-1, incubation time: 4 h
# 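Note: competitive profiling in live THP-1 cells: cysteine peptides tagged with an iodoacetamide desthiobiotin (IA-DTB) probe, intensity after compound treatment relative to DMSO-treated cells.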
Target,probe-labelled cysteine peptide fold change (10 µM),probe-labelled cysteine peptide fold change (50 µM)
PLEKHF2_Q9H8W4_186_CGFVVCGPCSEK (UniProt Q9H8W4),-0.0103,-0.0691
PLAA_Q9Y263_605_AINCPEDIVFPALDILR (UniProt Q9Y263),-0.179,0.232
PML_P29590_143_ESADFWCFECEQLLCAK (UniProt P29590),-0.0013,-0.0429
PKN1_Q16512_662_KGDIVARDEVESLMCEK (UniProt Q16512),-0.0461,-0.217
PLCB2_Q00722_1169_ACECPPELCEQDPLIAK (UniProt Q00722),-0.243,-0.299
PIK3R4_Q99570_1180_FQLPISSHCHPSR (UniProt Q99570),0.15,0.129
PLOD1_Q02809_680_VGVDYEGGGCR (UniProt Q02809),-0.225,0.125
